# Measurements taken from PubChem BioAssay AID256 (DTP/NCI, 2004).
# The list shows only some results of the screen, not a fair sample: it gathers some chemical classes. Not every dose and run of a compound is shown. T/C: endpoint of the treated group in % of that of the vehicle group. Some doses have a count of surviving animals in place of a T/C: the source files T/C as zero there, which appears to mark a toxic dose or a test without result, not a measured value. Some survivor counts are full or nearly so, which does not show that the dose was tolerated: survival well below the control is almost never listed, so the zero probably covers shortened survival too. Counts of survivors are from the toxicity check (mostly the fifth day) where no day follows; animals may have died later. Schedule codes are those of the source, read here as Q, the interval in days (D) or hours (H), X, the number of doses. Where survival is the endpoint, the PubChem record calls one and a half times the control and up active, and a quarter to a half above the control has no call in these data; cut-offs in other NCI protocols can differ. Some T/C values are followed by the survivors on the day toxicity was checked, most often the fifth; without a count or a note in brackets, all were alive then. Some entries hold several experiments; the values are given in rising order. Some T/C values are marked as having no survivor count here; that says nothing about deaths at the dose.
# Test system: CD2F1 mice, L1210 leukemia ip, survival T/C
# Test: NCI In Vivo Anticancer Drug Screen. Data for tumor model L1210 Leukemia (intraperitoneal) in CD2F1 (CDF1) mice
# Details: T/C endpoint: mean survival time, higher T/C = longer survival
# Summary of the method: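 Ratio T/C, where T is the treated-group value and C the vehicle-dosed control value, from mice implanted with a transplantable tumor.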
# [1] = dose: 100.0 mg/kg/injection, schedule: Q01DX009 (ip), vehicle: saline with Tween-80
# [2] = dose: 6.25 mg/kg/injection, schedule: Q01DX009 (ip), vehicle: Klucel (hydroxypropylcellulose) (HPC)
# [3] = dose: 12.5 mg/kg/injection, schedule: Q01DX009 (ip), vehicle: Klucel (hydroxypropylcellulose) (HPC)
# [4] = dose: 25.0 mg/kg/injection, schedule: Q01DX009 (ip), vehicle: Klucel (hydroxypropylcellulose) (HPC)
# [5] = dose: 50.0 mg/kg/injection, schedule: Q01DX009 (ip), vehicle: Klucel (hydroxypropylcellulose) (HPC)
# [6] = dose: 100.0 mg/kg/injection, schedule: Q01DX009 (ip), vehicle: Klucel (hydroxypropylcellulose) (HPC)
# [7] = dose: 200.0 mg/kg/injection, schedule: Q01DX009 (ip), vehicle: Klucel (hydroxypropylcellulose) (HPC)
# [8] = dose: 75.0 mg/kg/injection, schedule: Q01DX001 (ip), vehicle: other
# [9] = dose: 150.0 mg/kg/injection, schedule: Q01DX001 (ip), vehicle: other
structure (smiles),measurement,setting,value
CCC(CC)=NOP(N)(=O)N(CCCl)CCCl (centres undefined),T/C,"dose: 31.25 mg/kg/injection, schedule: Q01DX001 (ip), vehicle: distilled water + Tween-80",98 % of control
same,T/C,"dose: 62.5 mg/kg/injection, schedule: Q01DX001 (ip), vehicle: distilled water + Tween-80",101 % of control
same,survivor count,"dose: 125.0 mg/kg/injection, schedule: Q01DX001 (ip), vehicle: distilled water + Tween-80",0 of 6
same,survivor count,"dose: 250.0 mg/kg/injection, schedule: Q01DX001 (ip), vehicle: distilled water + Tween-80",0 of 6
same,survivor count,"dose: 500.0 mg/kg/injection, schedule: Q01DX001 (ip), vehicle: distilled water + Tween-80",0 of 6
O=[N+]([O-])c1ccc(SC2CCCCC2Cl)c([N+](=O)[O-])c1 (centres undefined),T/C,[1],101 % of control
same,T/C,"dose: 200.0 mg/kg/injection, schedule: Q01DX009 (ip), vehicle: saline with Tween-80",95 % of control
same,T/C,"dose: 400.0 mg/kg/injection, schedule: Q01DX009 (ip), vehicle: saline with Tween-80",97 % of control
COc1ccc2ccccc2n1.O=[N+]([O-])c1cc([N+](=O)[O-])c(O)c([N+](=O)[O-])c1,T/C,"dose: 100.0 mg/kg/injection, schedule: Q04DX003 (ip), vehicle: saline",88 % of control [survivor count not shown]
same,T/C,"dose: 200.0 mg/kg/injection, schedule: Q04DX003 (ip), vehicle: saline",86 % of control [survivor count not shown]
same,T/C,"dose: 400.0 mg/kg/injection, schedule: Q04DX003 (ip), vehicle: saline",86 % of control [survivor count not shown]
O=P(NO)(OCc1ccccc1)N(CCCl)CCCl (centres undefined),T/C,"dose: 25.0 mg/kg/injection, schedule: Q01DX001 (ip), vehicle: DMSO",97 % of control
same,T/C,"dose: 50.0 mg/kg/injection, schedule: Q01DX001 (ip), vehicle: DMSO",100 % of control
same,T/C,"dose: 100.0 mg/kg/injection, schedule: Q01DX001 (ip), vehicle: DMSO",100 % of control
same,T/C,"dose: 200.0 mg/kg/injection, schedule: Q01DX001 (ip), vehicle: DMSO",97 % of control
same,T/C,"dose: 400.0 mg/kg/injection, schedule: Q01DX001 (ip), vehicle: DMSO",105 % of control
Cc1cc(N(CCCl)CCCl)ccc1N,T/C,"dose: 0.25 mg/kg/injection, schedule: Q01DX009 (ip), vehicle: Klucel (hydroxypropylcellulose) (HPC)",106 % of control
same,T/C,"dose: 0.5 mg/kg/injection, schedule: Q01DX009 (ip), vehicle: Klucel (hydroxypropylcellulose) (HPC)",105 % of control
same,T/C,"dose: 1.0 mg/kg/injection, schedule: Q01DX009 (ip), vehicle: Klucel (hydroxypropylcellulose) (HPC)",111 % of control
same,T/C,"dose: 2.0 mg/kg/injection, schedule: Q01DX009 (ip), vehicle: Klucel (hydroxypropylcellulose) (HPC)",113 % of control
same,survivor count,"dose: 4.0 mg/kg/injection, schedule: Q01DX009 (ip), vehicle: Klucel (hydroxypropylcellulose) (HPC)",8 of 8
same,survivor count,"dose: 8.0 mg/kg/injection, schedule: Q01DX009 (ip), vehicle: Klucel (hydroxypropylcellulose) (HPC)",6 of 8
CCCCc1ccc(N(CCCl)CCCl)cc1,T/C,[2],103 % of control
same,T/C,[3],105 % of control
same,T/C,[4],92 and 103 % of control
same,T/C,[5],95 and 111 % of control
same,T/C,[6],105 and 108 % of control [5 of 6 alive]
same,T/C,[7],101 and 108 % of control
same,survivor count,"dose: 400.0 mg/kg/injection, schedule: Q01DX009 (ip), vehicle: Klucel (hydroxypropylcellulose) (HPC)",3 of 6
N#CC1=C(C#N)NP(=O)(N(CCCl)CCCl)N1,T/C,"dose: 12.5 mg/kg/injection, schedule: Q01DX009 (ip), vehicle: other",123 % of control
same,T/C,"dose: 25.0 mg/kg/injection, schedule: Q01DX009 (ip), vehicle: other",105 % of control
same,T/C,"dose: 31.3 mg/kg/injection, schedule: Q01DX001 (ip), vehicle: other",102 % of control
same,T/C,"dose: 44.0 mg/kg/injection, schedule: Q01DX009 (ip), vehicle: other",140 % of control
same,T/C,"dose: 50.0 mg/kg/injection, schedule: Q01DX009 (ip), vehicle: other",112 % of control
same,T/C,"dose: 62.5 mg/kg/injection, schedule: Q01DX001 (ip), vehicle: other",98 % of control
same,T/C,"dose: 66.0 mg/kg/injection, schedule: Q01DX009 (ip), vehicle: other",168 % of control
same,T/C,"dose: 100.0 mg/kg/injection, schedule: Q01DX009 (ip), vehicle: other",126 and 157 % of control
same,T/C,"dose: 125.0 mg/kg/injection, schedule: Q01DX001 (ip), vehicle: other",96 % of control
same,T/C,"dose: 150.0 mg/kg/injection, schedule: Q01DX009 (ip), vehicle: other",116 % of control
same,T/C,"dose: 200.0 mg/kg/injection, schedule: Q01DX009 (ip), vehicle: other",105 % of control
same,T/C,"dose: 250.0 mg/kg/injection, schedule: Q01DX001 (ip), vehicle: other",104 % of control
same,survivor count,"dose: 500.0 mg/kg/injection, schedule: Q01DX001 (ip), vehicle: other",3 of 6
COC1OC(CNCCCl)C2OC(C)(C)OC12 (centres undefined),T/C,"dose: 25.0 mg/kg/injection, schedule: Q01DX015 (ip), vehicle: saline",102 % of control
same,T/C,"dose: 50.0 mg/kg/injection, schedule: Q01DX015 (ip), vehicle: saline",96 % of control
CCCC(C)NCCO.O=[N+]([O-])c1cc([N+](=O)[O-])c(O)c([N+](=O)[O-])c1,T/C,[8],98 % of control [survivor count not shown]
same,T/C,[9],96 % of control [survivor count not shown]
C1CCC(C2=NCCS2)CC1.O=[N+]([O-])c1cc([N+](=O)[O-])c(O)c([N+](=O)[O-])c1,T/C,"dose: 50.0 mg/kg/injection, schedule: Q01DX009 (ip), vehicle: saline with Tween-80",104 % of control [survivor count not shown]
same,T/C,[1],104 % of control [survivor count not shown]
CCC(C)(C)c1c([N+](=O)[O-])c(C)c([N+](=O)[O-])c(C)c1[N+](=O)[O-],T/C,"dose: 100.0 mg/kg/injection, schedule: Q04DX003 (ip), vehicle: saline with Tween-80",93 % of control
same,T/C,"dose: 200.0 mg/kg/injection, schedule: Q04DX003 (ip), vehicle: saline with Tween-80",89 % of control
same,T/C,"dose: 400.0 mg/kg/injection, schedule: Q04DX003 (ip), vehicle: saline with Tween-80",93 % of control
CC(CO)NC1CCCC1.O=[N+]([O-])c1cc([N+](=O)[O-])c(O)c([N+](=O)[O-])c1,T/C,[8],95 % of control
same,T/C,[9],93 % of control
same,T/C,"dose: 300.0 mg/kg/injection, schedule: Q01DX001 (ip), vehicle: other",97 % of control
NCCc1ccc(N(CCCl)CCCl)cc1,T/C,"dose: 1.56 mg/kg/injection, schedule: Q01DX009 (ip), vehicle: Klucel (hydroxypropylcellulose) (HPC)",105 and 112 % of control
same,T/C,"dose: 3.12 mg/kg/injection, schedule: Q01DX009 (ip), vehicle: Klucel (hydroxypropylcellulose) (HPC)","109, 118, 126 % of control"
same,T/C,[2],"114, 121, 122, 143 % of control"
same,T/C,[3],88 % of control
same,survivor count,[3],6 of 6
same,survivor count,[4],2 of 6
same,survivor count,[5],0 of 3
same,survivor count,[6],0 of 3
same,survivor count,[7],0 of 3
O=C1NC(=O)C(c2cccc(N(CCCl)CCCl)c2)N1 (centres undefined),T/C,"dose: 12.5 mg/kg/injection, schedule: Q01DX001 (ip), vehicle: Klucel (hydroxypropylcellulose) (HPC)",97 and 100 % of control
same,T/C,"dose: 25.0 mg/kg/injection, schedule: Q01DX001 (ip), vehicle: Klucel (hydroxypropylcellulose) (HPC)",106 and 109 % of control
same,T/C,"dose: 50.0 mg/kg/injection, schedule: Q01DX001 (ip), vehicle: Klucel (hydroxypropylcellulose) (HPC)",106 and 109 % of control
same,T/C,"dose: 100.0 mg/kg/injection, schedule: Q01DX001 (ip), vehicle: Klucel (hydroxypropylcellulose) (HPC)","125, 127, 129 % of control"
same,survivor count,"dose: 200.0 mg/kg/injection, schedule: Q01DX001 (ip), vehicle: Klucel (hydroxypropylcellulose) (HPC)",6 of 6
same,survivor count,"dose: 400.0 mg/kg/injection, schedule: Q01DX001 (ip), vehicle: Klucel (hydroxypropylcellulose) (HPC)",6 of 6
